No constants are given. Whether binding was seen depends on the method and setting. Binding seen in cells or lysates may run through a third protein. Some entries that bind do so weakly or less than the wild type.
Biological target: USP14 (human (endogenous in human TNBC cells)) (UniProt P54578)
Assay: co-IP; cell lysates in IP lysis buffer incubated with USP14 antibody (or IgG) all night at 4 °C, magnetic beads 1 h, western blot for VEGFR2; control cells and cells with PCAT6 knocked down

Sequences of proteins named here, by UniProt entry; tags and fusion partners are left off. Residues count along the entry.
UniProt P54578: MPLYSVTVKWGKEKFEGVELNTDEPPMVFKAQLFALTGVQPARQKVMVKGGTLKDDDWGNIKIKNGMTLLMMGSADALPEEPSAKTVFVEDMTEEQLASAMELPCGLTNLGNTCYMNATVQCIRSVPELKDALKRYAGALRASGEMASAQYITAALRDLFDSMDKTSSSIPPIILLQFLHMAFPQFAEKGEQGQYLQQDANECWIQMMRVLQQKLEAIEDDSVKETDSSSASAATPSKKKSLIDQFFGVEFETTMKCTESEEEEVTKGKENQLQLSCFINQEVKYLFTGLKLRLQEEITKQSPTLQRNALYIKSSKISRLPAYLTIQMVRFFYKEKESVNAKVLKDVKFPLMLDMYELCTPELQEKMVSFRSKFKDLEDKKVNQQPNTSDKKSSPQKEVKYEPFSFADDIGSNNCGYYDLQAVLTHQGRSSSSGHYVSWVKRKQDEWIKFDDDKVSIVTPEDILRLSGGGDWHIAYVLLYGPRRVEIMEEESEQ
UniProt P35968, residues 20-1356: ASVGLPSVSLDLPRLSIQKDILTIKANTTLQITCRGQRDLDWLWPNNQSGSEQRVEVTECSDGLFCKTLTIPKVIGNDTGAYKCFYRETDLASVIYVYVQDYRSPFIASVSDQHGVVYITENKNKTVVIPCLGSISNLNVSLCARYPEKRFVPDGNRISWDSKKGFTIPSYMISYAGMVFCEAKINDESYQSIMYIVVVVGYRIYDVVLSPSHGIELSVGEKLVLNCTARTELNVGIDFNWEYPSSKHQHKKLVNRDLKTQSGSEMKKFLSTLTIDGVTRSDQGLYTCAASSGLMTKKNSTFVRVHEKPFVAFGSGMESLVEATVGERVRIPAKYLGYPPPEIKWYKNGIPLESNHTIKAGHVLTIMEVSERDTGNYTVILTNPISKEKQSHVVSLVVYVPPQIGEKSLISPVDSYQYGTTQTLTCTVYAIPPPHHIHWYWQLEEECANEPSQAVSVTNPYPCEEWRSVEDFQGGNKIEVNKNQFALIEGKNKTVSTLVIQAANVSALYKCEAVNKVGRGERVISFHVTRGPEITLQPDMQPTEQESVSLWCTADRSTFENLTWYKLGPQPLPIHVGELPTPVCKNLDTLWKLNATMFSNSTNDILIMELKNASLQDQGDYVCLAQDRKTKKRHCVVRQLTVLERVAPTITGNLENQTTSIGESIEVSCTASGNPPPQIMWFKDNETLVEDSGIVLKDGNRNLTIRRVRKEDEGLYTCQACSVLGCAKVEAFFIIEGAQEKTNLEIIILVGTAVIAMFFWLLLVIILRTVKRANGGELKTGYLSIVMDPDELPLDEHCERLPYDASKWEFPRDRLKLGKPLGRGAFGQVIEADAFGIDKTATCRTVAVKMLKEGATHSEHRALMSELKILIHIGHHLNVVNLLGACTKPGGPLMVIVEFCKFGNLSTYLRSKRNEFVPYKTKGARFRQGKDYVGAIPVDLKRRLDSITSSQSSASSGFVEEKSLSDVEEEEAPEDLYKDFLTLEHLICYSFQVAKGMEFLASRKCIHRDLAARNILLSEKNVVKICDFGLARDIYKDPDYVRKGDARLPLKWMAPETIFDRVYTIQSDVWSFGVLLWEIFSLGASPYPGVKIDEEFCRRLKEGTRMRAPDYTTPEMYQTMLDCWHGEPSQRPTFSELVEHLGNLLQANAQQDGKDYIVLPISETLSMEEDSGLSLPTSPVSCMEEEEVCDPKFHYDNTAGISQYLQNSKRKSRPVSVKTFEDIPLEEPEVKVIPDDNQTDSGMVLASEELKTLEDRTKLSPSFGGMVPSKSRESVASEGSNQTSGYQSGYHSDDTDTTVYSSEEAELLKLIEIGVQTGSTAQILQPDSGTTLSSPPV

binding: binds
Substance: VEGFR2 (from UniProt P35968 20-1356) (receptor)

Reference: PMC7481779
